Data taken from doi:10.1101/598664.
Where two headings read alike, the source gives them in different places. No constants are given. Whether binding was seen depends on the method and setting. In cells and extracts the contact can be indirect. Some binding calls cover weakened binding; strength is not graded here.

Experiments:
[1] = target: EGFR (human (endogenous in MDA-MB-468)) (UniProt P00533); assay: proximity ligation
[2] = target: EGFR (human (endogenous in MDA-MB-468)) (UniProt P00533); assay: proximity ligation; remark: listed apart in the source

B1: GAB1 (protein, UniProt Q13480 1-694)
chain: MSGGEVVCSGWLRKSPPEKKLKRYAWKRRWFVLRSGRLTGDPDVLEYYKNDHAKKPIRIIDLNLCQQVDAGLTFNKKEFENSYIFDINTIDRIFYLVADSEEEMNKWVRCICDICGFNPTEEDPVKPPGSSLQAPADLPLAINTAPPSTQADSSSATLPPPYQLINVPPHLETLGIQEDPQDYLLLINCQSKKPEPTRTHADSAKSTSSETDCNDNVPSHKNPASSQSKHGMNGFFQQQMIYDSPPSRAPSASVDSSLYNLPRSYSHDVLPKVSPSSTEADGELYVFNTPSGTSSVETQMRHVSISYDIPPTPGNTYQIPRTFPEGTLGQTSKLDTIPDIPPPRPPKPHPAHDRSPVETCSIPRTASDTDSSYCIPTAGMSPSRSNTISTVDLNKLRKDASSQDCYDIPRAFPSDRSSSLEGFHNHFKVKNVLTVGSVSSEELDENYVPMNPNSPPRQHSSSFTEPIQEANYVPMTPGTFDFSSFGMQVPPPAHMGFRSSPKTPPRRPVPVADCEPPPVDRNLKPDRKVKPAPLEIKPLPEWEELQAPVRSPITRSFARDSSRFPMSPRPDSVHSTTSSSDSHDSEENYVPMNPNLSSEDPNLFGSNSLDGGSSPMIKPKGDKQVEYLDLDLDSGKSTPPRKQKSSGSGSSVADERVDYVVVDQQKTLALKSTREAWTDGRQSTESETPAKSVK
binding [1]: binds
binding [2]: binds weakly
